PubChem BioAssay AID1259254 – NCATS, 2017

- Test: 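Genome-wide screen for genes that prevent DNA re-replication in cancer cells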 (primary screen)
- System: human HCT116 colorectal cancer cells
- Reagents: single siRNA against human genes
- Timing: 3 days
- Read-out: 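Nuclei stained with Hoechst and imaged; cell-cycle phase assigned by DNA content; G2 share scaled per plate, non-targeting siRNA 0%, GMNN siRNA 100%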
- Scale: G2 robust z-score: higher = more G2 cells, more excess DNA replication
- Call rule: 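An siRNA counts as active if its G2 robust z-score lies at least 5 MADs above the screen median; here such calls match roughly 38% of GMNN control or more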
Shown is an unselected part of about 59,000 reagents tested. About 1,550 of all reagents (2.6%) were called active. 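G2 share is only a proxy for re-replication; each gene was hit by three separate siRNAs, and active genes were retested.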 Not all columns of the deposit are shown. The record does not give: the amount of reagent.

PPIAP35 [SID160732438] — G2 robust z-score: 2.14; Call: inactive
PPIAP35 [SID160732439] — G2 robust z-score: -0.119; Call: inactive
PPIAP35 [SID160756711] — G2 robust z-score: -0.0153; Call: inactive
SERPINF1 [SID160714091] — G2 robust z-score: -0.569; Call: inactive
SERPINF1 [SID160714092] — G2 robust z-score: 0.75; Call: inactive
SERPINF1 [SID160731400] — G2 robust z-score: -0.747; Call: inactive
PIGK [SID160724195] — G2 robust z-score: 0.105; Call: inactive
PIGK [SID160724202] — G2 robust z-score: -0.869; Call: inactive
PIGK [SID160724209] — G2 robust z-score: -0.516; Call: inactive
RPS29P3 [SID160725587] — G2 robust z-score: -0.128; Call: inactive
RPS29P3 [SID160725588] — G2 robust z-score: 2.43; Call: inactive
RPS29P3 [SID160733792] — G2 robust z-score: 1.42; Call: inactive
GOLGA8EP [SID160725262] — G2 robust z-score: -0.153; Call: inactive
GOLGA8EP [SID160725264] — G2 robust z-score: -0.744; Call: inactive
GOLGA8EP [SID160766531] — G2 robust z-score: 0.552; Call: inactive
TMEM161B [SID160759328] — G2 robust z-score: 1.45; Call: inactive
TMEM161B [SID160759329] — G2 robust z-score: -0.941; Call: inactive
TMEM161B [SID160759331] — G2 robust z-score: 0.422; Call: inactive
DAP [SID160752528] — G2 robust z-score: -0.736; Call: inactive
DAP [SID160752538] — G2 robust z-score: -0.184; Call: inactive
DAP [SID160752549] — G2 robust z-score: -0.509; Call: inactive
SUV39H1 [SID160717567] — G2 robust z-score: -0.661; Call: inactive
SUV39H1 [SID160717568] — G2 robust z-score: 1.8; Call: inactive
SUV39H1 [SID160717570] — G2 robust z-score: 1.21; Call: inactive
NBL1 [SID160733457] — G2 robust z-score: 0.029; Call: inactive
NBL1 [SID160777794] — G2 robust z-score: -1.05; Call: inactive
NBL1 [SID160777795] — G2 robust z-score: -0.132; Call: inactive
GARS1 [SID160769309] — G2 robust z-score: 0.443; Call: inactive
GARS1 [SID160769317] — G2 robust z-score: -0.604; Call: inactive
GARS1 [SID160769328] — G2 robust z-score: -0.0603; Call: inactive
